The values below come from patent US20260049134A1.

The target in assay [1] is APP. The experiment in a line: ELISA on coated protein.
Assay [2] addresses APP. The experiment in a line: ELISA on coated APP-His. (In an ELISA, binding on a coated surface is turned into a signal by an enzyme label.)

No constants are given. Whether binding was seen depends on the method and setting.

B1: TH9-0022 (antibody, human IgG1, kappa, L234A L235A, V domains shown)
VH: QSLEESGGRLVTPGTPLTLTCTVSGFSLSSYAMNWVRQAPGKGLEWIGIINSYGSTYYASWAKGRFTISKTSTTVDLKITSPTTEDTATYFCARVTYDSYGYGYAPYGMDLWGPGTLVTVSS
VL: LVMTQTPSSTSNAVGGTVTIKCQASQSIGNVLAWYQQKPGQPPKLLIYAASTLASGVPSRVGGSRSGTEYTLTISGVQREDAATYYCLGSDSDSDIAFGGGTELEILR
As for B1, the binding result with APP [1] and with APP [2] was “no binding (tested: 150 ng IgG1 per well)” each time.

B2: HW-8 chimeric rabbit-human IgG1 LA/LA/PG (antibody, V domains shown)
VH: QSLEESGGRLVTPGTPLTLTCTVSGFSLSSYAMSWVRQAPGKGLEWIGAISTGGSTTYASWAKGRFTISKTSSTTVDLKMTSLTTEDTATYFCVRHFRLWGPGTLVTISS
VL: QVLTQTPSSVSAAVGGTVTIKCQASQSIGSALAWFQQKPGQRPKLLIYRASNLASGVPSRFKGSGSGTEFALTISGVQREDAATYYCLGGAAAVWAFGAGTNVEIKR
Take B2: the binding result with APP [1] and with APP [2] was “no binding (tested: 150 ng IgG1 per well)” throughout.

B3: HW-1 chimeric rabbit-human IgG1 LA/LA/PG (antibody, V domains shown)
VH: QSLEESGGGLFKPTDTLTLTCTASGFSLGSSYAISWVRQAPGKELEWIGTIDSGRAYYARWAKSRSTITRNTNENTVTLKMTSLTAADTATYFCARDLIPTYSQDIWGPGTLVTISS
VL: SFVLTQPASVQVNLGQTVSLTCTADTLSRRYASWYQQKPGQAPVLLIYRDTSRPSGVPDRFSGSSSGNTATLTISGAQAGDEADYYCATSDGSGNSYQYVFGGGTQLTVTS
As to B3, the binding result in the assay with APP [1] and in the assay with APP [2] was “no binding (tested: 150 ng IgG1 per well)” throughout.

B4: HW-113 chimeric rabbit-human IgG1 LA/LA/PG (antibody, V domains shown)
VH: QKQLVESGGGLVQPGGSLTLTCTVSGFSLNKYYMGWFRQAPGKGLEWIGVISRSGDTYYSSWAKGRFTISKASTTVDLRITSPTTEDTATYFCARDASSPGFHGDRLDLWGQGTLVTVSS
VL: SFVLTQPASVQVNLGQTVSLTCTADTLSRSYASWYQQKPGQAPVLLIYRDTSRPSGVPDRFSGSSSGNTATLTISGAQAGDEADYYCATSDGIGSNYLWVFGGGTQLTVTG
Consider B4, for which the binding result with APP [1] and in the assay with APP [2] was “no binding (tested: 150 ng IgG1 per well)” throughout.

B5: HW-17 chimeric rabbit-human IgG1 LA/LA/PG (antibody, V domains shown)
VH: QSLGESRGRLVTPDETLTLTCTVSGIDLSSNAMSWVRQAPGEGLEWIGTINTGGRAYYASWAKGRFTISRTSTTVDLKMTSLTTEDTATYFCARERYSDGRAYDIWGPGTLVTISS
VL: SFVLTQPASVQVNLGQTVSLTCTADTLSRRYASWYQQKPGQAPVLLIYTDSNRPSGIPDRFSGSSSGNTATLTISGAQAGDEADYYCATDDGSGSIYQYVFGGGTQLTVTG
For B5, the binding result in the assay with APP [1] and with APP [2] was “no binding (tested: 150 ng IgG1 per well)” throughout.

B6: HW-97 chimeric rabbit-human IgG1 LA/LA/PG (antibody, V domains shown)
VH: QKQLVESGGRLVTPGTPLTLTCTVTGIDLSSHGMSWVRQAPGKGLEWIGVIYPSGSTWYASWARGRFTISKTSTTVDLKMTSLTTEDTATHFCARGDVGGADNNIWGPGTLVTVSS
VL: SFVLTQPASVQVDLGQTVSLTCTAETLSRSYASWYQQKPGQAPVLLIYRDTSRPSGVPDRFSGSSSGNTATLTISGAQAGDEADYYCATSDGSGSSYQYVFGGGTQLTVTG
B6: the binding entry in the assay with APP [1] and in the assay with APP [2] was “no binding (tested: 150 ng IgG1 per well)” throughout.

B7: HW-42 chimeric rabbit-human IgG1 LA/LA/PG (antibody, V domains shown)
VH: QSVKESEGGLFKPADTLTLTCTVSGFSLSSNEISWVRQAPGEGLEYIGIIDTGGRAYYAVWARSRSTITRNTNLNTVTLKMTSLTAADTATYFCARGGVDTEWYAFSSWGPGTLVTVPS
VL: SFVLTQPASVQVNLGQTVSLTCTADTLSRRYASWYQQKPGQAPVLLIFRDTSRPSGVPDRFSGSSSGDTATLTISGAQAGDEADYYCATSDGSGSNYQYVFGGGTQLTVTG
On to B7, for which the binding entry with APP [1] and with APP [2] was “no binding (tested: 150 ng IgG1 per well)” in each case.

B8: HW-70 chimeric rabbit-human IgG1 LA/LA/PG (antibody, V domains shown)
VH: QSLEESGGRLVTPGTPLTLTCTVSGFSLSSNAMSWVRQAPGKGLEWIGTIDGYGYTYYASWAKGRFTVSKTSTTVDLKITSPTTEDTATYFCAREIYLGSNFWGPGTLVTISS
VL: SFVLTQPASVQVNLGQTVSLTCTADTLSRRYASWYQQKPGQAPVLLIYRDTSRPSGVPDRFSGSSSGNTATLTISGAQAGDEADYYCATADGSGSSYQFVFGGGTQLTVTG
In the case of B8, the binding entry with APP [1] and with APP [2] was “no binding (tested: 150 ng IgG1 per well)” in each case.

B9: HW-25 chimeric rabbit-human IgG1 LA/LA/PG (antibody, V domains shown)
VH: QSLEESGGRLVTPGTPLTLTCTVSGFSLSSYAMGWVRQAPGKGLEWIGIIDSRGSTYYATWAKGRFTISKTSTTVDLKITSPTTEDTATYFCAREDSYYYDSFNLWGPGTLVTVSS
VL: SFVLTQPASVQVNLGQTVSLTCTADTLSRRYASWYQQKPGQAPVLLIYRDTSRPSGVPDRFSGSSSGNTATLTISGAQAGDEADYYCATSDGSGSSYQCVFGGGTQLTVTG
With B9, the binding entry with APP [1] and with APP [2] was “no binding (tested: 150 ng IgG1 per well)” in each case.

B10: HW-101 chimeric rabbit-human IgG1 LA/LA/PG (antibody, V domains shown)
VH: QEQLVESGGRLVTPGTPLTLTCKASGFSLGKYDMSWVRQAPGKGLEWIGTIYAGSGSTWYASWAKGRFTISKTSTTVDLKMTSLTTEDTATYFCARDFLGVNSIWGPGTLVTISS
VL: SFVLTQPASVQVNLGQTVSLTCTADTLSRSYASWYQQKPDQAPVLLIHRDTSRPSGVPDRFSGSNSGNTATLTISGAQAGDEADYYCATSDGSGSNFHFVFGGGTQLTVTG
Take B10: the binding result with APP [1] and with APP [2] was “no binding (tested: 150 ng IgG1 per well)” in each case.
